Experimental data taken from article PMC5228031, “CDK4/6-dependent activation of DUB3 regulates cancer metastasis through SNAIL1” (Nature Communications, 2017).
These are yes or no findings as the source states them, for the method shown. Binding seen in cells or lysates may run through a third protein. These calls come from enrichment with a bait or labelling near it, and not all partners need be listed.

Amino acid sequences for entries named in this document (tags omitted).
UniProt O95863: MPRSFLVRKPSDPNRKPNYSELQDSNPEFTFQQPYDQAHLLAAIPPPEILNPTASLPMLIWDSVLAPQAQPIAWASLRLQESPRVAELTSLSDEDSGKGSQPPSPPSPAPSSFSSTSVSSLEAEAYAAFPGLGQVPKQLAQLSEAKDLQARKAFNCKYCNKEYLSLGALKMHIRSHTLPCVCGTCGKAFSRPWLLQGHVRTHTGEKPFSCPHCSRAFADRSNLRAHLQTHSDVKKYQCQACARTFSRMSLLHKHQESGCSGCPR
UniProt P68400: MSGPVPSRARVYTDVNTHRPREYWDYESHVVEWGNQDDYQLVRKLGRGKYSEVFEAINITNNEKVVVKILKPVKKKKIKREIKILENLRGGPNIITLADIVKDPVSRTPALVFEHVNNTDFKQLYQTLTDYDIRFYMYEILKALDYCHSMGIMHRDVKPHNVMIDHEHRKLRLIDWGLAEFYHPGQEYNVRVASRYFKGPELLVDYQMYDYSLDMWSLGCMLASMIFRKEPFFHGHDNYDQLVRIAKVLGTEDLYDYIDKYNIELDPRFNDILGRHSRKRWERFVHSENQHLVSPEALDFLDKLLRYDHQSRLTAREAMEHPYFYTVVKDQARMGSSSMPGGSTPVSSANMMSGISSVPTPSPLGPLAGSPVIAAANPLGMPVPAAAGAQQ
UniProt Q93009: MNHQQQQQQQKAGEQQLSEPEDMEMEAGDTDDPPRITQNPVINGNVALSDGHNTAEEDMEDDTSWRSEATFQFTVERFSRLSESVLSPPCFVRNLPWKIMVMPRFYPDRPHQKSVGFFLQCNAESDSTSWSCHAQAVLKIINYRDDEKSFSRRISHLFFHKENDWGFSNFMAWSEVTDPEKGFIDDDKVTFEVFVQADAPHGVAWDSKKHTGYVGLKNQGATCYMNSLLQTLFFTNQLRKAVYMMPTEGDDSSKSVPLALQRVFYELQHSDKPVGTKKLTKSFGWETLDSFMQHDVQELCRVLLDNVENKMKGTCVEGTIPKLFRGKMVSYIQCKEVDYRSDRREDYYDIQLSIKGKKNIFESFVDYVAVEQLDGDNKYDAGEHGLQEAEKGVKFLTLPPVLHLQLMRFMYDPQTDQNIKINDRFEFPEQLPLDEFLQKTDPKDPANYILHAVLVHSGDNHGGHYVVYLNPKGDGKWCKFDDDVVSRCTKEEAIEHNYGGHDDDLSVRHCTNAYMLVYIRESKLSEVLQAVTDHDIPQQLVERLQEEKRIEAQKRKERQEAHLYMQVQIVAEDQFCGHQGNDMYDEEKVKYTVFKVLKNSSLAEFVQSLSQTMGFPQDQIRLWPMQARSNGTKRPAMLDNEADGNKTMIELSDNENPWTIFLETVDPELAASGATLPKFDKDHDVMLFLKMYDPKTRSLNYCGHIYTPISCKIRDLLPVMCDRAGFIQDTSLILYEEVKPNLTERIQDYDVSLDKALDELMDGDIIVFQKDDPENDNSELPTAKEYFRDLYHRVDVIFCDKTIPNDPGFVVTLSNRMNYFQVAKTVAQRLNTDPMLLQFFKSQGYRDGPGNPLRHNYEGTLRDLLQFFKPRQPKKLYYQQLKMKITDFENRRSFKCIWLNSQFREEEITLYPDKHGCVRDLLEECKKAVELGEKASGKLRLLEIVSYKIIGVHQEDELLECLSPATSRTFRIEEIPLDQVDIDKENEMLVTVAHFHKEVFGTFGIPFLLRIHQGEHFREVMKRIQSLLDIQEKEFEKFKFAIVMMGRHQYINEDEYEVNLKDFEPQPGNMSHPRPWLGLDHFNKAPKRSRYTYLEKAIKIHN
UniProt P51784: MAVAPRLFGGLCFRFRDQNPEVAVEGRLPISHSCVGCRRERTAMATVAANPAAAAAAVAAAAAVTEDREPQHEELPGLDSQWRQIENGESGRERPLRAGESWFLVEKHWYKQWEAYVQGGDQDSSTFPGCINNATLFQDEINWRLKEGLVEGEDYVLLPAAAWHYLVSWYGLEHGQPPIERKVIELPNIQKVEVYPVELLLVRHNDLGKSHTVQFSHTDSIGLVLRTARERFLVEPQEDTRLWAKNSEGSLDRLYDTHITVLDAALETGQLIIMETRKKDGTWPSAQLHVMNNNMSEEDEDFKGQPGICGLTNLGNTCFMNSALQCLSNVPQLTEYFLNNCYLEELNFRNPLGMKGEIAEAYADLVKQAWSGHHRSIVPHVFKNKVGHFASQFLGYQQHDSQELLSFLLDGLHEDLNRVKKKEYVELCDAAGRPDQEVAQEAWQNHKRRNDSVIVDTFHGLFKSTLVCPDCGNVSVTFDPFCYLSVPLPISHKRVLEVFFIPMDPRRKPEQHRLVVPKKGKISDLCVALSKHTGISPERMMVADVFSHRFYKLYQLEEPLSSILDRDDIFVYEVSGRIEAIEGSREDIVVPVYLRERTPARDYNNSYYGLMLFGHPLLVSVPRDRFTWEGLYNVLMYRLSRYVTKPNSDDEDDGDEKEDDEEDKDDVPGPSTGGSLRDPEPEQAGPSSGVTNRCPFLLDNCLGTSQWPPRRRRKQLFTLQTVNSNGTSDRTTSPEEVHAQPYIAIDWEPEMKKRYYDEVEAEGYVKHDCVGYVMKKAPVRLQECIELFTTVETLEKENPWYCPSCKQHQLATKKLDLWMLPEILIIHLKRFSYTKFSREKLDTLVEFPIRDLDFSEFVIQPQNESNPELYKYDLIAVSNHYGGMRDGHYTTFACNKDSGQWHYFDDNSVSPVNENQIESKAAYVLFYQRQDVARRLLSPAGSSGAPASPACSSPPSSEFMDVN

B1: deubiquitinating enzyme 3 (DUB3), endogenous (enzyme, UniProt Q6R6M4 1-530)
chain: MEDDSLYLGGEWQFNHFSKLTSSRPDAAFAEIQRTSLPEKSPLSSEARVDLCDDLAPVARQLAPRKKLPLSSRRPAAVGAGLQNMGNTCYENASLQCLTYTPPLANYMLSREHSQTCQRPKCCMLCTMQAHITWALHSPGHVIQPSQALAAGFHRGKQEDAHEFLMFTVDAMKKACLPGHKQVDHHSKDTTLIHQIFGGCWRSQIKCLHCHGISDTFDPYLDIALDIQAAQSVKQALEQLVKPEELNGENAYHCGLCLQRAPASKTLTLHTSAKVLILVLKRFSDVTGNKLAKNVQYPECLDMQPYMSQQNTGPLVYVLYAVLVHAGWSCHDGHYFSYVKAQEGQWYKMDDAKVTACSITSVLSQQAYVLFYIQKSEWERHSESVSRGREPRALGAEDTDRRATQGELKRDHPCLQAPELDERLVERATQESTLDHWKFPQEQNKTKPEFNVRKVEGTLPPNVLVIHQSKYKCGMKNHHPEQQSSLLNLSSTTRTDQESVNTGTLASLQGRTRRSKGKNKHSKRALLVCQ

Target: FLAG-SNAIL1 (UniProt O95863)
Experiment: affinity purification with mass spectrometry; tandem affinity purification of SNAIL1 complexes from MDA-MB-231 cells stably expressing FLAG-SNAIL1, then mass spectrometric analysis

binding, binds:
CSNK2A1 (from UniProt P68400 1-391) (enzyme)
USP7 (from UniProt Q93009 1-1102) (enzyme)
USP11 (from UniProt P51784 1-963) (enzyme)
B1
